No constants are given. Whether binding was seen depends on the method and setting. Some entries that bind do so weakly or less than the wild type. For part of these data: Sequences can lack the tags named with a protein. One block for each binder: values may come before it.
Experiments:
[1] = target: DC-specific ICAM-grabbing non-integrin (DC-SIGN; CD209) (human) (UniProt Q9NNX6); test: fluorescent beads adhesion assay, flow cytometry, K-SIGN cells
[2] = target: DC-specific ICAM-grabbing non-integrin (DC-SIGN; CD209) (human) (UniProt Q9NNX6); test: adhesion of monocyte-derived DC; assay not described
[3] = target: T1, Activated Leukocyte Cell Adhesion Molecule ALCAM (UniProt Q13740); test: fluorescent beads adhesion assay, flow cytometry, K-ALCAM cells
T1 sequence (looked up): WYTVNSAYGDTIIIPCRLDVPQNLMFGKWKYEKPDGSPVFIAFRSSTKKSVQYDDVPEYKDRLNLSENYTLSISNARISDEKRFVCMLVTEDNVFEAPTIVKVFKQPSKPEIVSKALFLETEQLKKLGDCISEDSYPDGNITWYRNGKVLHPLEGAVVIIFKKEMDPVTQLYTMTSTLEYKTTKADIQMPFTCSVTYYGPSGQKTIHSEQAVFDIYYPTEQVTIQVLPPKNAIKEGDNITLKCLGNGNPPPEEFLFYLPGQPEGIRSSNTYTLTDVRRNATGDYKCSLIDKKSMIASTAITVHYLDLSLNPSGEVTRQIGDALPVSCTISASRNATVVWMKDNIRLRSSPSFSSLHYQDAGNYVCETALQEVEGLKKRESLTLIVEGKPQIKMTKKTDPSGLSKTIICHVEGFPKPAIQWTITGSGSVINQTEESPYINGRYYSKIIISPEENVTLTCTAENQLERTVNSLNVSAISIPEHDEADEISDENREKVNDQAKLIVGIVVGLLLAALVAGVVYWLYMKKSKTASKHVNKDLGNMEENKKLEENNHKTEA

Protein sequences, listed by entry. Tags and fused reporters are not part of them.
UniProt Q9NNX6: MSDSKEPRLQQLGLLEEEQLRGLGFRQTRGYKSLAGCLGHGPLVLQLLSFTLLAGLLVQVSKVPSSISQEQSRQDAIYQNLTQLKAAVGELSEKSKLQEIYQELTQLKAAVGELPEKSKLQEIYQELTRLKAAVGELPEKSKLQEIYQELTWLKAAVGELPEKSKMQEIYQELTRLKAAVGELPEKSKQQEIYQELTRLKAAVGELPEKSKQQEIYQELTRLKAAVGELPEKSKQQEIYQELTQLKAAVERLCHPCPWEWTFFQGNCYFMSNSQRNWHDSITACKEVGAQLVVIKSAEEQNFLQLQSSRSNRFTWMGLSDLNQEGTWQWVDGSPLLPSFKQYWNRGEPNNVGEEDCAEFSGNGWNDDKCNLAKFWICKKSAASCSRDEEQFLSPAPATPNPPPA

binding [1]: binds
B1: ICAM-3-Fc (Fc fusion, UniProt P32942 30-485, looked up)
chain: QEFLLRVEPQNPVLSAGGSLFVNCSTDCPSSEKIALETSLSKELVASGMGWAAFNLSNVTGNSRILCSVYCNGSQITGSSNITVYRLPERVELAPLPPWQPVGQNFTLRCQVEDGSPRTSLTVVLLRWEEELSRQPAVEEPAEVTATVLASRDDHGAPFSCRTELDMQPQGLGLFVNTSAPRQLRTFVLPVTPPRLVAPRFLEVETSWPVDCTLDGLFPASEAQVYLALGDQMLNATVMNHGDTLTATATATARADQEGAREIVCNVTLGGERREARENLTVFSFLGPIVNLSEPTAHEGSTVTVSCMAGARVQVTLDGVPAAAPGQPAQLQLNATESDDGRSFFCSATLEVDGEFLHRNSSVQLRVLYGPKIDRATCPQHLKWKDKTRHVLQCQARGNPYPELRCLKEGSSREVPVGIPFFVNVTHNGTYQCQASSSRGKYTLVVVMDIEAGSSH
notes: Coated on carboxylate-modified TransFluorSpheres; also called ICAM-3-Fc coated beads; ICAM-3 fluorescent beads; not shown: Fc part

binding [2]: binds
B2: ICAM-3 (ligand, UniProt P32942 30-485, looked up)
chain: B1 chain

binding [3]: binds
B3: ALCAM-Fc (Fc fusion, UniProt Q13740 28-527, looked up, not shown: a dimerising Fc or GST)
chain: WYTVNSAYGDTIIIPCRLDVPQNLMFGKWKYEKPDGSPVFIAFRSSTKKSVQYDDVPEYKDRLNLSENYTLSISNARISDEKRFVCMLVTEDNVFEAPTIVKVFKQPSKPEIVSKALFLETEQLKKLGDCISEDSYPDGNITWYRNGKVLHPLEGAVVIIFKKEMDPVTQLYTMTSTLEYKTTKADIQMPFTCSVTYYGPSGQKTIHSEQAVFDIYYPTEQVTIQVLPPKNAIKEGDNITLKCLGNGNPPPEEFLFYLPGQPEGIRSSNTYTLTDVRRNATGDYKCSLIDKKSMIASTAITVHYLDLSLNPSGEVTRQIGDALPVSCTISASRNATVVWMKDNIRLRSSPSFSSLHYQDAGNYVCETALQEVEGLKKRESLTLIVEGKPQIKMTKKTDPSGLSKTIICHVEGFPKPAIQWTITGSGSVINQTEESPYINGRYYSKIIISPEENVTLTCTAENQLERTVNSLNVSAISIPEHDEADEISDENREKVNDQAK
